Measured values as given in patent US11561217B2, “Compounds inhibiting Nef-calnexin interaction” (The George Washington University, a Congressionally …, priority 2016, dated 2023).
Some results were stated once for a whole list of compounds, not compound by compound.

Test system: THP-1 cells
Assay: MTT assay for cytotoxicity, 5-day incubation
Assay type: cell-based
Conditions: 5 μM, relative to untreated cultures

With `O=C1c2ccccc2C(=O)c2c(Nc3ccc4c5c(cccc35)C(=O)c3ccccc3-4)cccc21` [NSC 13987, 1[(7-Oxo-7H-benz[de]anthracene-3-yl)amino] anthraquinone] the “reduction of cell metabolism (MTT)” value was “less than 10%”.
In the case of `O=C1c2ccccc2C(=O)c2c1ccc1c2[nH]c2ccccc21` [NSC 92938, 5H-Naphtho(2,3-a)carbazole-5,13(12H)-dione], the “reduction of cell metabolism (MTT)” value is reported as “less than 10%”.
